Source: the supplement of paper PMC3334620
Whole data set: some 33,000 sequences, median “E-score (-0.5 to 0.5)” near -0.016, cut for the highest 2% near 0.3. The list shows a part of the results.

Each sequence was assayed against T1, Yer184c (UniProt P39961) (assay: PBM E-score (8-mer binding enrichment) (E-score (-0.5 to 0.5)); higher = stronger / more preferred TF binding). Conditions: protein concentration: 100 nM; construct: GST-full length.
T1 sequence: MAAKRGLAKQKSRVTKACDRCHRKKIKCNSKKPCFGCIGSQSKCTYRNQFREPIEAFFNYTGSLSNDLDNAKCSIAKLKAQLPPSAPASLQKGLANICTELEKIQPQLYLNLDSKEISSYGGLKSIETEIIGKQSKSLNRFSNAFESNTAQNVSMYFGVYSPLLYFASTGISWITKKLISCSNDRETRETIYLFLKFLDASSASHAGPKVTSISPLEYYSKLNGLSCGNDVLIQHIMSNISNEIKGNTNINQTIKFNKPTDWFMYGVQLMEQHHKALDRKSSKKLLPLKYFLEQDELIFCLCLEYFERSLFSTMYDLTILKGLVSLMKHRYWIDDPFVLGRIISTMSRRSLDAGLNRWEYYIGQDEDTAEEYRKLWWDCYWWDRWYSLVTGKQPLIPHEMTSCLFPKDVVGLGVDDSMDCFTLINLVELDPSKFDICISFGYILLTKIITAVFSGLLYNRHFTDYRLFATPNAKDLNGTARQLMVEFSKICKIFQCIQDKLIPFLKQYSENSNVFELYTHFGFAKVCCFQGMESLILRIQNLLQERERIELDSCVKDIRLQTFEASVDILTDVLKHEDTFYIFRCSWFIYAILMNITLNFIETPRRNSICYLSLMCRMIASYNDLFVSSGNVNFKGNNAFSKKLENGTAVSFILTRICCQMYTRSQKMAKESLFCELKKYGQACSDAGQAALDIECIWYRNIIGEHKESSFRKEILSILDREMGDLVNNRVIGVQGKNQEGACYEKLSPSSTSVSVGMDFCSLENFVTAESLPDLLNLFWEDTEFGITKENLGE
Summary of the method: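 The E-score, a modified Wilcoxon-Mann-Whitney statistic, was computed by the Universal PBM Analysis Suite for every ungapped eight-base word pooled with its reverse complement. Scans behind it were normalised with masliner after bound GST-tagged yeast transcription factors were detected with fluorescent anti-GST. The proteins, at about 100-200 nM, had been applied to universal all-10-mer Agilent arrays made double-stranded by primer extension.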

Sequence | PBM E-score
CGACTGTC | -0.209
CTGCCACA | -0.085
GTTACCTA | -0.0188
CAGGCTAA | -0.216
CGAAAACA | 0.134
AGATCCGA | 0.237
ATTTCCGC | 0.307
CGAGAGCA | 0.0746
AATTTCCC | 0.0065
AGACCGGA | 0.198
ATCCCCTA | -0.312
AACCGGTC | 0.229
CTTGAAAA | 0.0878
CGTTGAAA | 0.121
ACGAGATG | -0.0451
GCTCTCTA | -0.149
GCGTAAAA | 0.108
ATGCGATG | -0.217
TCACCAAA | 0.0454
CTTTTAGC | -0.0509
CATTAGCC | -0.197
AGCCGACC | -0.0181
CCACTGAA | 0.107
CTCTAAAC | -0.0559
GCGAGCAA | -0.08

Looked up one by one from the entries so far:
Sequence | PBM E-score
CGTTGAAA | 0.121
CTGCCACA | -0.085

Carrying on:

Sequence | PBM E-score
GGATGATA | -0.0511
AACTCTAA | 0.178
CTGGCCAG | -0.355
CGGCAGAG | 0.0593
AAGTCATG | 0.0848
CACTGAGA | -0.221
AAATGAGA | -0.018
ACACATTC | 0.0278
AGAGGGAA | -0.288
CCGCAACC | 0.129
AATCGTTG | 0.0539
ATCCCGAA | 0.287
TAAATTGA | 0.119
AATGTTCT | 0.0086
AGAGCATG | -0.0963
CGGTACTA | -0.0015
TGCATACA | 0.0647
CTACTAAG | 0.0176
GTAGTCTA | -0.0114
AAATAGGT | -0.086
GCGGACGA | 0.243
ACCTGAAG | -0.0794
AGCGCGTA | 0.0467
AGTAAACT | 0.119
GTAATTAA | 0.143

Sequence | PBM E-score
CTAACGTA | 0.0661
GGTATCTA | 0.18
AGAGTGAC | -0.215
ACGCTCTC | -0.162
TCATATGA | 0.301
GATTATGC | 0.0503
ACGGCAAC | 0.126
GATATAAA | 0.13
AAGAACCT | -0.0869
CCCGAGCG | 0.252
CGTTGAGA | 0.0569
AGGCTTTC | -0.0704
ACAACTTG | -0.0904
CCTAATGA | -0.00493
CTATGTCA | 0.0564
ACTATTGG | -0.114
ACCCTTGC | -0.269
ACACCACA | 0.00025
CAGGTCAG | -0.0812
GCAGGTCA | -0.194
AACCGGGT | 0.202
ACACAGAA | 0.115
AAGCAGCC | -0.0367
GGAAACGA | 0.0401
TCCGCCGA | 0.316

Reformatted as comma-separated lines: entries from further up.
Sequence,PBM E-score
ATGCGATG,-0.217
TCACCAAA,0.0454
CTTTTAGC,-0.0509
CATTAGCC,-0.197
AGCCGACC,-0.0181

More results:

Sequence | PBM E-score
AATGCCAT | 0.055
AACCGGTT | 0.359
AGAATTAA | 0.119
AACAGAAC | 0.163
CACCTTAC | -0.119
TAGAAGGA | -0.197
AGGCTCTG | -0.229
ACACATGA | -0.161
ATAGCGTG | -0.151
ATTGATTC | 0.249
AGGATAGC | 0.093
TCAACTGA | -0.106
AAATGGTG | 0.123
ACCGTCTG | -0.124
TATCCAGA | 0.132
CCGGGCCG | 0.429
ACTGTATC | -0.113
AACGCACC | -0.0986
GGAAATAA | 0.319
AAAAGGGG | -0.131
ATCTTCGC | -0.0164
ATACAGTC | -0.139
ATGGAATG | -0.0127
TCGTAGAA | -0.00598
ATAGGTGC | -0.207

Sequence | PBM E-score
CCCCGGCA | 0.0621
CATTACAG | -0.117
AGGCATAG | -0.0292
CGAGATAA | 0.221
CGCCATCA | -0.255
GGGGTGTA | -0.313
CGGGTTAA | 0.275
AGCACCTA | -0.151
CATGACGG | 0.00557
CTCTCCCC | -0.334
CGTCACGA | -0.0573
GCTTTTCA | 0.0483
CGGCTACA | 0.159
AGGCACTC | -0.109
AATAGATA | 0.173
CTCGCGAG | 0.0566
GTCACGTA | -0.144
AATGTTGT | -2e-05
CGGTCCCA | -0.0326
CCGGCGAA | 0.35
AATCCGGG | 0.269
AGTAAGTA | 0.119
ACCCTGTC | -0.258
CACGCCGA | 0.153
CCGACACG | 0.00343

Sequence | PBM E-score
ATGGGTGA | -0.106
CTCTCTAC | -0.0939
CGGTCGCA | -0.0193
GGGCACCA | -0.168
GTTCCACA | -0.0536
ACTATTAT | 0.152
GGAGCCAC | -0.216
ACTGGTTC | 0.162
CCGCTGCG | -0.122
ATGGTCTC | 0.052
ATCGAGCA | 0.0416
CGCAGGCA | -0.0787
CCAACCAG | -0.241
ATACGTAA | 0.15
CAAATGGG | -0.243
AGCTCGAT | 0.136
GATCTGGA | -0.0474
GAAGCTAA | -0.0943
GCTACTCC | 0.083
CTGTAAAA | 0.0841
ACAGTATA | -0.0135
AGTTCTCA | 0.0932
TATACCAA | 0.0942
CGGCGAAG | 0.205
GTATTGAA | 0.0799

Sequence | PBM E-score
AAAAAATA | 0.112
TCTGGCAA | -0.00181
GCTATCAA | 0.214
AGGTTATG | -0.122
CGCGCGTA | -0.0439
TGTCTCAA | -0.0699
GTCTACCA | -0.138
AACAAATC | 0.121
GGCATGAA | 0.206
AATGTAAT | 0.282
AGAACGCC | -0.0143
CCGCGTCC | 0.223
GATTAACC | -0.0522
AATGCAAA | 0.125
GGCATCTA | 0.0791
GGACGTCA | -0.244
ATTCTTAG | -0.122
ACAAACTA | 0.131
ACACCCTG | -0.248
AATTCTCG | 0.134
CCCCCGTC | -0.351
AGGGGTAG | -0.242
AGACAGTA | 0.0761
GATTTTCA | 0.207
GAAAGCTA | 0.00964

Sequence | PBM E-score
AACGTCTG | 0.00407
AATATCAT | 0.142
TCCACAAA | 0.197
ACTCAACT | 0.15
AATCCTAA | -0.0613
AAGCCACT | -0.192
ACCCCTCC | -0.209
ACGAGACT | -0.121
CTAGCAAA | 0.114
AAGGAGAT | -0.0447
ACCCTACA | -0.0427
CCGCAGGC | 0.104
CATTCGAC | 0.0575
AAGCAGAA | 0.0833
AATTGGGC | -0.00147
CCTAGTGC | -0.0697
CTACGGCC | 8e-05
CGTTCCCC | -0.21
TGAATGCA | -0.0178
CCGGAATC | 0.336
CGGGGCAC | -0.0898
ACGATTTA | 0.0905
GGAATCCA | 0.0185
GGTAACGA | -0.013
ACGTATGA | 0.19

Sequence | PBM E-score
AGGAAGGG | -0.228
CTCTAGCA | -0.152
AATCTTGG | -0.111
CGGCCGTA | 0.311
ACTGTAGC | -0.0197
AAAAAAAA | 0.231
CCGCCAGG | -0.288
CAGTGAGC | -0.276
TCCTCCCA | -0.0546
CACCCACA | -0.0828
CCACGGGA | -0.00213
GATTATCC | 0.137
AGGTACAC | -0.147
TAGACCCA | -0.0937
CGCCCCCA | -0.315
GCTACTAA | 0.0486
ATAGCATA | 0.00878
GGAGCCAA | -0.0882
GCCGGGGA | 0.0977
